Reference: US20130280758A1 (Regeneron, published 2013)
Results are given in words; binding and its absence hold for the method and conditions named. Some entries that bind do so weakly or less than the wild type.

T1: rat Tie-1 (rTie-1), as used in BIAcore analysis (rat) (UniProt F7F3P6)
T1 sequence: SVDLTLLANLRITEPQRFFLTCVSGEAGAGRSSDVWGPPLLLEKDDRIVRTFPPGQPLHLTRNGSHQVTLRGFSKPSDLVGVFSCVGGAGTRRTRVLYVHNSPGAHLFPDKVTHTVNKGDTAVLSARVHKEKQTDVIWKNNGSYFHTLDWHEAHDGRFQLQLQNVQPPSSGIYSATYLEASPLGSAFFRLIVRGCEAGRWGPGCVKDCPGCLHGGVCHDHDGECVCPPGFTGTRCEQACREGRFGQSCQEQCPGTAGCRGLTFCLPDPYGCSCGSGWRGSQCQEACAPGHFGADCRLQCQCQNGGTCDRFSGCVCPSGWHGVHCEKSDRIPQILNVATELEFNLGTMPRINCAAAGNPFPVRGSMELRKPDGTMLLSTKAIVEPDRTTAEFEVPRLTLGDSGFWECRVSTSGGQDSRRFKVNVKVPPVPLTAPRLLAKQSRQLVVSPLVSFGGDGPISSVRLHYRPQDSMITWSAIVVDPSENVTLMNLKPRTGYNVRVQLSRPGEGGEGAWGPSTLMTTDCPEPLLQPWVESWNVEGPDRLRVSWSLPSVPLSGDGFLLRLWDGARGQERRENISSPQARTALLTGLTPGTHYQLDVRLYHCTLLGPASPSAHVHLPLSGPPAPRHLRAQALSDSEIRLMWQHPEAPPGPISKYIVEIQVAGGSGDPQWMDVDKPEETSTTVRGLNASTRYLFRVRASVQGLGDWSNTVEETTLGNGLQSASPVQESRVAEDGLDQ

B1: B2 antibody (anti-rat Tie-2 mouse hybridoma antibody) (antibody, V domains shown)
VH: QVKLEESGPGLVKPSQSLSLTCTVTGYSITSDYAWNWIRQFPGNKLEWMGYINYSGITSYNPSLKSRISITRDTSKNQFFLQLNSVTAEDTATYYCARYYGSSYNYYGMDYWGQGTSVTVSS
VL: DIVMTQSPKSMSMSVGERVTLNCKASENVGTYISWYQQKPDQSPKLLIYGASNRYPGVPDRFTGSGSATDFTLTISSLQAEDLADYHCGQGYTYLTFGAGTKLELKR
B2: 1-1F11 antibody (anti-rat Tie-1 mouse hybridoma antibody) (antibody, V domains shown)
VH: DVQLVESGGGLVQPGGSRKLSCAASGFTFSSFGMHWVRQAPEKGLEWVAYISSGSSNIYYADTVKGRFTISRDNPKNTLFLQMTSLRSEDTAMYYCARGYDYDRGYYAIDYWGQGTSVTVSS
VL: DIQMTQSPASLSASVGETVTITCRASENIYSNLAWYQQKQGKSPQLLVYGATNLADGVPSRFSGSGSGTQYSLKINSLQSEDFGSYYCQHFWGTPWTLGGGTKLEIKR
B3: 2-1G3 antibody (anti-rat Tie-1 mouse hybridoma antibody) (antibody, V domains shown)
VH: EVKLVESGGGLVKPGGSLKLSCAASGFTFSSYGMSWVRQTPEKRLEWVATISGGGSYTYYPDSVKGRFTISRDNAKNNLYLQMSSLRSEDTALYYCARRRYDPYAMDYWGQGTSVTVSS
VL: DIQMTQTTSSLSASLGDRVTISCRASQDISNYLNWYQQKPDGTVKLLIYYISRLHSGVPSRFSGSGSGTDYSLTISNLEQEDIATYFCQQGNTLPYTFGGGTKLEIKR
B4: A12A antibody (anti-rat Tie-2 mouse hybridoma antibody) (antibody, V domains shown)
VH: EVKLQESGAELMKPGASVKISCKATGYTFSSYWIEWVKQRPGHGLEWIGEILPGSGSTNYNEKFKGKATFTADTFSNTAYMQLSSLTSEDSAVYYCARFDGYLPFDHWGQGTTLTVSS
VL: DIVLTQSPASLAVSLGQRATISCRASKSVITSGYSYMHWYQQKPGQPPQLLIYLASNLESGVPARFSGSGSGTDFTLNIHPVEEEDAATYYCHHSRELPRTFGGGTKLEIKR

Legend:
[1] = biological target: rat Tie-2 (rTie-2), as used in BIAcore analysis (rat); test: BIAcore
[2] = biological target: rat Tie-2 (rTie-2), as used in BIAcore analysis (rat); test: BIAcore, sequential binding
[3] = biological target: T1, rat Tie-1 (rTie-1), as used in BIAcore analysis (rat); test: BIAcore, sequential binding

Binder	binding [1]	binding [2]	binding [3]
B1	binds	binds	–
B2	–	–	binds
B3	–	–	binds
B4	binds	binds	–
